Results published in PMC12152837, “Semaglutide Aggregates into Oligomeric Micelles and Short Fibrils in Aqueous Solution” (Biomacromolecules, 2025).

Test: Circular dichroism, α-helix content
Type: physicochemical
Conditions: for α-helix content: from [Θ]222; for α-helix fraction f a: from [θ]222(obs) versus theoretical

## Semaglutide
40-day aged 1 wt % solution in water
  α-helix content: 4.2%
40-day aged sample
  α-helix fraction f a: 0.042
Fresh 1 wt % solution in water
  α-helix content: 2.7%
Fresh sample
  α-helix fraction f a: 0.027
